Reference: patent publication US20170129921A1
No constants are given. Whether binding was seen depends on the method and setting. Some binding calls cover weakened binding; strength is not graded here.

Sequences of proteins named here, by UniProt entry; tags and fusion partners are left off.
UniProt P21730: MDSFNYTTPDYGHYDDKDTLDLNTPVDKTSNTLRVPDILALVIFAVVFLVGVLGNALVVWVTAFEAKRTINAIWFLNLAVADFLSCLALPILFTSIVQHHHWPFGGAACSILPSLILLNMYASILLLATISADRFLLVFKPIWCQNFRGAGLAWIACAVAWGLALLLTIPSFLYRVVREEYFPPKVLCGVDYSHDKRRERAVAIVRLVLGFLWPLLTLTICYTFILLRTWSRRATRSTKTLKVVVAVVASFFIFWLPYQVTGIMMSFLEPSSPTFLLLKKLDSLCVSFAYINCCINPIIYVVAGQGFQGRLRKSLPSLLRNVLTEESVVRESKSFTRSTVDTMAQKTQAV

Target: C5a receptor 1 (human) (UniProt P21730)
Experiment: 125I-C5a displacement on C5aR1 membranes

Row | Binder | binding
1 | RHYPYWR (acetylated N-terminus (Ac-); C-terminus unblocked (-OH)) [Peptide P32, Ac-RHYPYWR-OH] | binds
2 | LIRLWR (acetylated N-terminus (Ac-); C-terminus unblocked (-OH)) [Peptide P59, Ac-LIRLWR-OH] | binds
